# Library screening results

Source: ChEMBL document CHEMBL3988442, “University of Dundee, Small-Polar-MMV Screening Library” (2021).

Each number is a percent effect as filed. The controls that fix the scale are not given in the record; negative values are as filed. Compounds were drawn at random from those tested, without regard to their results.

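Assay on Mycobacterium tuberculosis, filed only as a heat shock assay from Cornell; the read-out is not stated. The concentration is filed as 10 mM, unlikely as a test dose, so the dose is not known. Higher reads as stronger inhibition (inferred: compounds with an IC50 in retests scored well above the rest). About 69,000 compounds were tested under these conditions; 1.4% (about 930) showed 50% or more at least once.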

Cn1ccc(C(=O)NC2CCC23CCN(CC2CCOCC2)CC3)c1.O=C(O)C(F)(F)F (centres undefined) read -4.395%.
CC(NC(=O)NCc1ccoc1)c1ccc2c(c1)CC(=O)N2 (centres undefined) read 11.39%.
O=C(CCc1ccc(Cl)s1)N1CCCC(n2cncn2)C1 (centres undefined) read 1.943%.
CN(C)CCN1CCN(CC2CC2)c2ncccc2C1 read -20.11%.
O=C(C[S+]([O-])Cc1ccc(Cl)cc1Cl)N1CCc2sccc2C1 (centres undefined) read -14.88%.
CN(C)C1CCN(C(=O)c2ccc(Cn3ccccc3=O)o2)CC1 read 18.62%.
Cc1ccc([C@H]2CN(CCO)C[C@@H]2NC(=O)CN2CCCCC2=O)o1 read -0.4908%.
Cc1ccc(-c2noc(CN3CCOC(Cn4cccn4)C3)n2)cc1 (centres undefined) read -24.72%.
CCOc1cccc(COC(=O)c2cc(C)on2)n1 read -28.8%.
c1ccc2cc(OCCCN3CCn4c(nnc4C4CC4)C3)ccc2c1 read -2.383%.
COC1CCN(C(=O)Cn2ccc3ccccc32)CC1 read 3.352%.
CCc1cc(NCC(O)CN2CCCCC2)ncn1 (centres undefined) read -22.27%.
N#Cc1c(Cl)nsc1NCCCN1C(=O)COc2ccccc21 read 9.122%.
O=C(O)C(F)(F)F.[H][C@@]12CN(C(=O)NC(C)C)C[C@]1([H])C(=O)N(Cc1csc(C)n1)C2 read -5.057%.
Cc1cc(C(=O)NC2CCCc3c2cnn3-c2cccc(C)c2C)[nH]n1 (centres undefined) read 10.96%.
O=C(O)c1ccc(CNC(=O)C2CCN(Cc3ccco3)CC2)s1 read 9.376%.
[H][C@]12CC[C@]([H])(CC(=O)NC1)N2C(=O)CCc1ccsc1 read 15.25%.
COCCN(C/C=C/c1ccccc1)Cc1[nH]cnc1C read -1.061%.
CCOc1cc(C)c(-c2cc(N)[nH]n2)cc1OCC read 2.308%.
OCC(CO)Nc1ccc2ccc(Cl)c(Cl)c2n1 read -31.72%.
Cc1cccc(CN2CCN(c3ncnc4[nH]ccc34)CC2CCO)n1 (centres undefined) read 4.664%.
[H][C@]12CNC[C@@]1(C(=O)NCCNc1ccncc1C)CN(C(C)=O)C2 read -30%.
COC(=O)c1ccc(-c2ccc(/C=C3\C(=O)NC(=N)N3C)o2)cc1 read -7.072%.
CN(C)c1nc(NCc2ccccc2Cn2cccn2)ncc1F read -10.19%.
Cc1cc(CN(C)C(=O)NCc2ccnc(SC(C)(C)C)c2)no1 read -1.782%.
Cc1cccc(-n2nnnc2C2(NCc3ccco3)CCCCC2)c1 read 8.958%.
Cc1ccn(CCC(=O)NCc2ccco2)n1 read 6.355%.
CC(C)CC(=O)Nc1c(-c2ccc(F)cc2)ncn1C read -21.88%.
CCC(C(=O)NCc1cccnc1)N(c1cccc(C)c1)S(C)(=O)=O (centres undefined) read -17.56%.
Cc1cccnc1CN1CCN(C(=O)c2cc(Cl)c[nH]c2=O)CC1 read -13.26%.
COc1ccc(OC)c(NC(=O)c2c(C)cn(C)c2CC(=O)O)c1 read -7.55%.
CS(=O)(=O)N1CCCCC12CCN(c1nncs1)CC2 read 0.8168%.
Cc1nc(NCC2CC2)nc2c1COCC21CCN(C(=O)NC(C)C)C1 (centres undefined) read -0.1478%.
CC(C)(O)CCc1cccc(C(=O)N2CCC3(CCO3)CC2)c1 read 14.53%.
CC(C)c1ncc2c(n1)CN(Cc1ccc3c(c1)OCCO3)CC2 read -1.983%.
CCC(CO)N(Cc1cccs1)C(=O)CSC (centres undefined) read 9.02%.
O=C(Cn1cccn1)Nc1ccc(N2CCCCC2)cc1 read 0.9643%.
COc1ncccc1CN1CCc2[nH]nc(C(=O)N(C)C)c2C1 read -3.271%.
CCc1nc(CN2CCCC(NCc3nnc(C4CC4)o3)C2)no1 (centres undefined) read 12.24%.
CC(C)N(CCCNC(=O)C1CC1)S(C)(=O)=O read 9.35%.
Cc1cc(C)nc(Nc2nccnc2C2CCCN(C(CO)CO)C2)n1 (centres undefined) read -33.36%.
COCCNc1ccccc1CNC(=O)NCc1nc(C)c(C)s1 read -12.06%.
N#Cc1ccccc1OCCN1CCCCC1C(=O)N1CCOCC1 (centres undefined) read -14.27%.
COc1ncccc1CN1Cc2nccn2CC(Cn2cccn2)C1 (centres undefined) read 41.91%.
C[C@@H]1CN(Cc2ccco2)CCN1C(=O)Cc1ccccc1F read -15.34%.
Cc1nnc(NCc2ccccc2S(=O)(=O)N(C)C)c(C#N)c1C read 30%.
CC(C(=O)NC1CC1)S(=O)(=O)Cc1csc(-c2cccs2)n1 (centres undefined) read -6.227%.
CSCC1CCN(C(=O)Cn2ncc(N3CCCCC3)cc2=O)CC1 read 6.765%.
CC(=O)N(Cc1ncc(C(C)C)o1)C1CCN(Cc2cc(C)on2)C1 (centres undefined) read 29.26%.
O=C(c1ccc(C(F)(F)F)cc1)C1CCCN(C(=O)Cn2cnnn2)C1 (centres undefined) read -27.43%.
O=C(O)C(F)(F)F.[H][C@]12CN(Cc3ccccc3OC)C[C@@]1([H])OCCN(C(C)=O)C2 read -5.26%.
O=C(O)C(F)(F)F.[H][C@@]12OCCN(CC3CCOCC3)[C@@]1([H])CC[C@H]2OCC1CC1 read -1.173%.
CNC(=O)N1CCC(NC(=O)c2cnn(C)c2)CC1 read -0.287%.
CCS(=O)(=O)NCCCNc1ncnc2cc(F)c(F)cc12 read -11.94%.